These are yes or no findings as the source states them, for the method shown. Binding seen in cells or lysates may run through a third protein. Some entries that bind do so weakly or less than the wild type.
Molecular target: FLAG-tagged human BAG3 (human) (UniProt O95817)
Assay: co-IP; FLAG-hBAG3 overexpressed in HEK293T; anti-FLAG M2 affinity gel overnight at 4 °C; immunoblotting; untagged hBAG3 as control

Amino acid sequences for entries named in this document (tags omitted).
UniProt O95817: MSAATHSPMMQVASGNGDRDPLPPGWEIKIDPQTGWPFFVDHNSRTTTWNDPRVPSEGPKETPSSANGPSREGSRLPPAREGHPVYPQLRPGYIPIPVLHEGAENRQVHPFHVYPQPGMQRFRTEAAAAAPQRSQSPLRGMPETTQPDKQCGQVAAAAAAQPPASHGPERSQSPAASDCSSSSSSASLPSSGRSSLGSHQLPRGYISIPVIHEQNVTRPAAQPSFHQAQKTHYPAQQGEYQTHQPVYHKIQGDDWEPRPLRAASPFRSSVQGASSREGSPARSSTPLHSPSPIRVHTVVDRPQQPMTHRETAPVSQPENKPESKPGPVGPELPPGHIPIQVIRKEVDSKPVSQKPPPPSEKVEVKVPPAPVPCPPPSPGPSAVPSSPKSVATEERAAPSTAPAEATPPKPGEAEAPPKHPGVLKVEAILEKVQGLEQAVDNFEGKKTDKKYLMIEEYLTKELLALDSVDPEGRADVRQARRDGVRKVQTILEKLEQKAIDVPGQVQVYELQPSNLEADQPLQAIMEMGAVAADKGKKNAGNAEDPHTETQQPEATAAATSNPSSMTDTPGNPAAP
UniProt P07947: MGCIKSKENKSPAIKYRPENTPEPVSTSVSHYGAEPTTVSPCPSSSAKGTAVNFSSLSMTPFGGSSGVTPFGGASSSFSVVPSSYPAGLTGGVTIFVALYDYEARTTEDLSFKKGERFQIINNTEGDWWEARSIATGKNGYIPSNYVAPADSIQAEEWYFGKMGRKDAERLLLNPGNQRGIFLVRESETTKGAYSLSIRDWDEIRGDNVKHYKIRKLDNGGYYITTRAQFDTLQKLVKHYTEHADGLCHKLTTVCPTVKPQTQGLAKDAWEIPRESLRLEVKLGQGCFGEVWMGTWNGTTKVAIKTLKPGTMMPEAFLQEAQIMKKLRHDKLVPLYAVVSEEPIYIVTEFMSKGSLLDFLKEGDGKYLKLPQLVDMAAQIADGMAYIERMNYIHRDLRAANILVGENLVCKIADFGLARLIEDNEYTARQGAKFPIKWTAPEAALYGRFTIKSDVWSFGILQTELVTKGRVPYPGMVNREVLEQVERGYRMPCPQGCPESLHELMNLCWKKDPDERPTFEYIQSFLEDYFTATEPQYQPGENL

tyrosine-protein kinase YES1 (Yamaguchi Sarcoma viral oncogene homologue 1) (from UniProt P07947 1-543)
binding: binds

Reference: publication PMC7694386
